The list shows a part of the results. These are further read-outs of the screen, such as a control signal, another cell line or another target. No call is given for them. Compounds called inactive in the main read-out are mostly missing here. Potencies come from curve fits of mixed quality, noted in brackets.
Assay: qHTS Assay to Find Inhibitors of Chronic Active B-Cell Receptor Signaling
Conditions: ABC-DLBCL IkBa-CBG/CBR reporter, luminescence ratio (green luciferase fused to IkBa over red control in TMD8 lymphoma cells), 4 h
Outline: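 TMD8 ABC-DLBCL cells carrying doxycycline-inducible green luciferase fused to IkappaBalpha plus unfused red luciferase were exposed to compounds (up to 46 uM) for 4 hrs at 37C. Activity came from the overlap-corrected green/red luminescence ratio.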

[1] = measured here: CBR red luminescence, cell number
[2] = measured here: IkBa-CBG green luminescence

Structure (SMILES)	AC50 [1]	AC50 [2]
O=C(Nc1cccnc1N1CCOCC1)c1cccs1	31.6 µM [rising, single point]	
COc1ccc(/C=N/NC(=O)c2cc(Br)ccc2O)cc1Cn1cc(Cl)cn1	1.3 µM [falling, partial curve]	
O=C(Nc1nnc(S(=O)(=O)N2CCCC2)s1)c1cccc([N+](=O)[O-])c1	15.8 µM [rising, partial curve, poor fit]	
O=C(Nc1ccc(Br)cc1)c1cnc[nH]1	35.5 µM [falling, single point]	
O=[N+]([O-])c1cc(Br)c2nsnc2c1N1CCOCC1	17.8 µM [rising, single point]	
O=C1C(Cc2cccc([N+](=O)[O-])c2)S/C(=N/N=C/c2ccco2)N1c1ccccc1 (configuration not stated)	0.58 µM [rising, full curve]	
COc1ccc(Oc2ccccc2C=O)cc1	17.8 µM [rising, partial curve]	17.8 µM [falling, single point]
CC(/C=C/c1ccc(O)cc1)=N/O	4.11 µM [falling, full curve, poor fit]	
CCN1/C(=C/C=C/C=C/c2sc3ccccc3[n+]2CC)Sc2ccccc21	35.5 µM [falling, single point]	
CC1CCc2[nH]c3ccc(C(=O)Nc4ccc(C(=O)N(C)C)cc4)cc3c2C1 (configuration not stated)	3.16 µM [rising, partial curve, poor fit]	
Cc1ccccc1NC(=S)Nc1ccc2cn[nH]c2c1	8.91 µM [falling, partial curve]	
COc1ccc(NC(=O)Nc2nc3ccccc3s2)cc1	10 µM [falling, single point]	
Cc1c(Cl)cccc1NC(=O)CSc1nc2ncc(Cl)cc2[nH]1	2.82 µM [falling, single point]	
CCc1ccc(-c2nc(CN3CCC(C(=O)NCCc4ccc(OC)c(OC)c4)CC3)c(C)o2)cc1	1.12 µM [rising, full curve]	
NNC(=O)c1ccc(Cn2cccn2)o1	0.562 µM [falling, full curve]	
Cc1ccc(CN2CCCCC2C(=O)Nc2ccc(Oc3cccnc3)cc2)o1 (configuration not stated)	31.6 µM [rising, single point]	28.2 µM [falling, single point]
Cn1c(CNC(=O)c2ccc(F)cc2)nc2ccccc21	23.1 µM [falling, single point]	
CCc1nc2ccccc2n1Cc1ccc(OC)c(OC)c1	2.59 µM [rising, full curve, poor fit]	
N/C(Cc1ccc(Cl)cc1)=N\OC(=O)C1CCCCC1	2.31 µM [rising, full curve]	
CCOC(=O)c1nnn(CC(=O)Nc2cc(Cl)ccc2C)c1C(=O)OCC	7.31 µM [rising, partial curve]	
COc1ccc(OC)c(Nc2nc(N)nc(-c3cc4ccccc4o3)n2)c1	0.231 µM [falling, full curve, poor fit]	
CCN1CCSc2ccc(C(=O)NCc3ccccc3F)cc21	0.112 µM [falling, full curve, poor fit]	

Structure (SMILES)	AC50 [1]	AC50 [2]
CC(=O)NN1C(=O)/C(=C/c2ccc(C(C)C)cc2)SC1=S	20.6 µM [rising, partial curve, poor fit]	
CC1=C(C)CC(C(=O)c2ccc(C)cc2)C(C(=O)O)C1 (configuration not stated)	2.91 µM [rising, single point]	
O=C(c1ccc(N2CCN(C(=O)c3ccccc3)CC2)cc1)c1cccc(F)c1	17.8 µM [rising, partial curve, poor fit]	
Cc1ccc(/C=C/C(=O)NCCc2ccccc2)o1	11.2 µM [falling, partial curve]	
CCCCCCCNC(=O)C1(CC2CC(c3ccc(Cl)cc3)=NO2)CCN(C(=O)CCCCCBr)CC1 (configuration not stated)	35.5 µM [falling, single point]	
Cc1cc(OCCCC(=O)N2CCCCC2)cc(C)c1Cl	2.91 µM [rising, single point]	
C(=N\Nc1nc(N2CCCCCC2)nc(N2CCCCCC2)n1)/c1ccccc1	35.5 µM [rising, single point]	
COc1ccc(N2CCN(C(=O)CN(C)S(=O)(=O)c3cc(C)ccc3OC)CC2)cc1	17.8 µM [rising, single point]	
Cc1cccc(NC(=O)Cn2c(O)c(N=NC(=O)c3ccncc3)c3ccccc32)c1	2.51 µM [rising, full curve, poor fit]	
CCOC(=O)C1CCN(c2cc(=O)n(-c3ccccc3Cl)c(=O)[nH]2)CC1	20.6 µM [falling, single point]	
COc1ccc(S(=O)(=O)NCCc2cn3nc(C)c(C)nc3n2)cc1	3.55 µM [falling, partial curve, poor fit]	
Cc1cccc(NC(=O)Nc2ccccc2)n1	17.8 µM [falling, single point]	
Cc1sc2nc(-c3cccs3)oc(=O)c2c1C	12.6 µM [falling, partial curve, poor fit]	
CC(=O)Nc1cccc(/C(C)=N/NC(=O)c2cccs2)c1	20.6 µM [falling, single point]	
CCCN(C(=O)CSc1n[nH]c(-c2ccc(OC)cc2)n1)c1c(N)n(Cc2ccccc2)c(=O)[nH]c1=O	7.31 µM [rising, partial curve, poor fit]	
COC(=O)Cc1[nH]n(-c2ccccc2)c(=O)c1C=Nc1ccc(C)cc1	0.447 µM [rising, partial curve, poor fit]	
O=C1/C(=C/c2cccc(Cl)c2)SC(=S)N1CCC(=O)N1CCCCC1CCO (configuration not stated)	10 µM [falling, partial curve]	
Cc1ccc(-c2csc3ncnc(SCc4ccc(C(=O)O)cc4)c23)cc1	28.2 µM [rising, single point]	
Cc1cc(N2CC(C(=O)NCc3cccs3)CC2=O)ccc1C(C)C (configuration not stated)	3.26 µM [rising, partial curve, poor fit]	
FC(F)(F)c1cccc(-c2nc3nc(Cl)c(Cl)nc3[nH]2)c1	1.58 µM [falling, full curve]	
CC(=O)CSc1nc(C(F)(F)F)cc(=O)n1-c1ccccc1	20.6 µM [rising, single point]	
COc1ccc2nc(N3C(=O)C(O)=C(C(=O)c4ccco4)C3c3ccccc3OC)sc2c1 (configuration not stated)	3.98 µM [falling, full curve, poor fit]	

Structure (SMILES)	AC50 [1]	AC50 [2]
COc1ccccc1-n1c(=O)c(C#N)c(-c2ccc([N+](=O)[O-])cc2)c2cc(C(=O)c3cc(F)ccc3O)cnc21	2.82 µM [falling, full curve]	
CCCc1cc(=O)oc2cc(Oc3ncccn3)ccc12	1.3 µM [falling, full curve, poor fit]	
COc1ccc(CN(C(=O)c2ccco2)c2ccc(C)cc2)cc1OC	15.8 µM [falling, partial curve, poor fit]	
COc1ccc(S(=O)(=O)N2CCCCC2)cc1NS(=O)(=O)c1ccccc1	7.31 µM [rising, partial curve, poor fit]	
Clc1ccc2nc(-c3ccc(Br)s3)cn2c1	16.4 µM [falling, single point]	
CCOc1ccc(N(CC(=O)Nc2cccc(Br)c2)S(C)(=O)=O)cc1	28.2 µM [falling, single point]	
C=CCc1c(C)nc2cc(-c3ccc(C)cc3)[nH]n2c1=O	10 µM [falling, single point]	
O=C(NCc1ccc2c(c1)OCO2)c1ccc(COc2cccc(Cl)c2)o1	10.3 µM [falling, partial curve]	
Cc1ccccc1-n1nc(C(=O)O)cc1-c1ccccc1	4.11 µM [rising, single point]	
Cc1ccc(SCc2cn3c(C)csc3n2)cc1	2.06 µM [rising, partial curve, poor fit]	
O=C(CN1CCN(S(=O)(=O)c2ccc(F)cc2)CC1)Nc1ccc(F)cc1F	11.2 µM [falling, partial curve]	
C[C@@H]1CCCCCCCCC(=O)OCCN(C(=O)OC(C)(C)C)[C@H](C)CCCCCCCCC(=O)OCCN(C(=O)OC(C)(C)C)[C@H](C)CCCCCCCCC(=O)OCCN(C(=O)OC(C)(C)C)[C@H](C)CCCCCCCCC(=O)OCCN1C(=O)OC(C)(C)C	23.1 µM [rising, partial curve, poor fit]	
COC(=O)Cc1cn(-c2ncc(C(F)(F)F)cc2Cl)c2ccccc12	29.1 µM [rising, partial curve, poor fit]	
Cc1ccc(CN=C(N)Nc2nc(C)cc(C)n2)cc1	10 µM [falling, partial curve, poor fit]	
CCCCNC(=O)c1cc2ccccc2s1	15.8 µM [falling, single point]	
CCn1c2ccccc2c2cc(NC(=O)c3cc(OC)c(OC)c(OC)c3)ccc21	0.501 µM [rising, full curve]	0.501 µM [falling, full curve]
CCOC(=O)CNc1c(-c2ccc(O)cc2)nc2ccc(Cl)cn12	16.4 µM [falling, partial curve]	
COc1ccc(-n2ncc3c(N4CCN(c5cccc(C)c5)C(C)C4)ncnc32)cc1 (configuration not stated)	5.01 µM [falling, full curve, poor fit]	
Cc1ccc(NC(=O)c2ccc3nc[nH]c3c2)c(O)c1	22.4 µM [falling, single point]	
Cc1ccc(C(=O)N/N=C\c2cccn2C)cn1	22.4 µM [falling, single point]	
